# System: CT-DNA
# Assay: UV–vis absorption spectral titration with CT-DNA
# Type: binding
# Details: for Δλ (bathochromic shift): band 272–285 nm, Tris-HCl buffer; for ΔG: van't Hoff equation from Kb, CT-DNA binding
# [1] = compound 50 μM, CT-DNA 0–100 μM
compound,measurement,setting,value
"O=Cc1ccc(OCc2cn(-c3ccc(Cl)c(Cl)c3)nn2)cc1O [Compound 3, 4-((1-(3,4-Dichlorophenyl)-1H-1,2,3-triazol-4-yl)methoxy)-2-hydroxybenzaldehyde]",Δλ (bathochromic shift),[1],13.00 nm
same,Δλ (bathochromic shift),"compound 50 μM, CT-DNA 0–100 μM, listed as compound 3",13 nm
same,% H (hypochromism),"band at 272 nm, compound 50 μM, CT-DNA 0–100 μM",–86.18%
same,isosbestic point,[1],370–390 nm
same,ΔG,,–31.25 kJ·mol^–1
same,ΔG,listed as compound 3,−31.25 kJ·mol^–1

# Reference: PMC10483525, “Synthesis, Structural Investigations, DNA/BSA Interactions, Molecular Docking Studies, and Anticancer Activity of a New 1,4-Disubstituted 1,2,3-Triazole Derivative” (ACS Omega, 2023)
